These results are taken from patent US20130317087.

The exact form of at least one protein or probe is not confirmed. Where cells or extracts were used, other partners may take part. For some of these results: No signal at the amounts used counts as a negative. For some of these results: Where a protein sequence is shown, tags need not be part of it.

Common to all, as to assay: pull-down
The target in data set [1] is ILF3 (Homo sapiens) (UniProt Q12906). As to conditions: protein in cells.
The target in data set [2] is T1, UPF1 (Homo sapiens) (UniProt Q92900).
T1 sequence (looked up, limits assumed): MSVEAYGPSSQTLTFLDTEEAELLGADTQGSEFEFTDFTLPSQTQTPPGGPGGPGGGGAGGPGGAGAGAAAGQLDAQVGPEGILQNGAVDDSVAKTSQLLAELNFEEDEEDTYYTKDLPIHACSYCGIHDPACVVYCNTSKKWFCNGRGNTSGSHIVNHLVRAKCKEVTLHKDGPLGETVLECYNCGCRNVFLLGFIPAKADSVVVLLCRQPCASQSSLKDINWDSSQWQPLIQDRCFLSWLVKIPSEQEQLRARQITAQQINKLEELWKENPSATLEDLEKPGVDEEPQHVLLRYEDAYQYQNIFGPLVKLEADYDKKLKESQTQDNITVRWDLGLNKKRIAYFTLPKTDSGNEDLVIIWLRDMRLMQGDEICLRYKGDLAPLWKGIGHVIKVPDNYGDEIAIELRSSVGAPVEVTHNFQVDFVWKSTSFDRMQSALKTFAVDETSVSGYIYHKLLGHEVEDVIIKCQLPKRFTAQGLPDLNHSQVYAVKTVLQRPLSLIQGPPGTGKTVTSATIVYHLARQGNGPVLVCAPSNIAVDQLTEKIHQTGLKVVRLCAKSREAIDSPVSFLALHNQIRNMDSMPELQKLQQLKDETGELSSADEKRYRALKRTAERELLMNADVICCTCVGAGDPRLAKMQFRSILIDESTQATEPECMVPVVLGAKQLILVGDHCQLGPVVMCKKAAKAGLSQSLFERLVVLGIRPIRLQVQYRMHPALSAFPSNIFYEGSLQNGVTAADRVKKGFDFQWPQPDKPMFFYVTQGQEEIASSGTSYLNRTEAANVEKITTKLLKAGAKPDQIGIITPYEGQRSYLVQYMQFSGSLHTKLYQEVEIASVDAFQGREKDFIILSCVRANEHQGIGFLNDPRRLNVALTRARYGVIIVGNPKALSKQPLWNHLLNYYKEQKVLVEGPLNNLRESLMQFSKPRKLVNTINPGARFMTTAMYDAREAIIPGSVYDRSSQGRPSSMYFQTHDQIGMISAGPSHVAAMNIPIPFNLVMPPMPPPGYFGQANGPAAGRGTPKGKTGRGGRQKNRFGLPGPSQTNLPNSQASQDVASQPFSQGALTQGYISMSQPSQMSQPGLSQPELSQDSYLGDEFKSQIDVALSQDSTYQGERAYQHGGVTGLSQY
As to conditions: protein in cells; variant of 1/2-sbsRNA1(S) lncRNA (AF087999).

Data set [3] has as its target T2, STAU1 (endogenous) (Homo sapiens) (UniProt O95793).
T2 sequence (limits assumed): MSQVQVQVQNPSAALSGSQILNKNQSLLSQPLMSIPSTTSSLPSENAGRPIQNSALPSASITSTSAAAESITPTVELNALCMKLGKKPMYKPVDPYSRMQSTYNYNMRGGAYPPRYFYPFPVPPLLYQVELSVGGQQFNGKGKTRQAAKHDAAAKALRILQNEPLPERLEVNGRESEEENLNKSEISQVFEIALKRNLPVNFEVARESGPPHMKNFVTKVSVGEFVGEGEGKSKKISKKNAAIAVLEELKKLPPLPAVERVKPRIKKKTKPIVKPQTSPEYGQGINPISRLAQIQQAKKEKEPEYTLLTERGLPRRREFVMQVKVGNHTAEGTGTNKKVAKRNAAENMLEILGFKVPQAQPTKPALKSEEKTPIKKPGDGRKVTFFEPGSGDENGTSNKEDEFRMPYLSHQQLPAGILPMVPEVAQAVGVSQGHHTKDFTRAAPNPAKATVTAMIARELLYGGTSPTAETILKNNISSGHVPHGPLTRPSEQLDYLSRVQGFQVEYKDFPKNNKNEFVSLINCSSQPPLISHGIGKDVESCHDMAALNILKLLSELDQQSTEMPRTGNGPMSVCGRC
As to conditions: co-IP via FLAG-MS2-hMGFP, formaldehyde-crosslinked HeLa; protein in cells; variant of 1/2-sbsRNA1(S) lncRNA (AF087999).

Data set [4] addresses FMR1 (Homo sapiens) (UniProt Q06787). As to conditions: protein in cells.
The target in data set [5] is T3, STAU1-HA3 (hSTAU1) (Homo sapiens) (UniProt O95793).
T3 sequence (limits assumed): T2 sequence (limits assumed)
As to conditions: protein in cells.

Where [6] appears, read: not co-immunoprecipitated via FLAG-MS2-hMGFP, variant of 1/2-sbsRNA1(S) lncRNA (AF087999).

“CCAAGAAGUAGGUUUUUUUUUUUUUUUAAAUAAAGGAGAGACAGUCUCACUCUGUUGCCCAGGCUGGAAUACAGUGGUGUGAUCAUAGCUCACUGCAGCCUCUUUUAACUCCUGGGCUCAAGCAAUCCUUCCAACCUCAGCAUUCUGAGUAGCUGGGAUCACAGGUGCUCCCCAUCACACCCUGCUAAUUUAAUUUUCUUUGUAGAGACAGGGUCUUGCUAUGUUGCCUAGGCUGGUCUUGAACUCCUGGGCUCAAGUGAUCCUCCCGCCUCAGCCUCCCAGUGUUAGGAUUACAGGAGUGAGCCACUGCCUCUGCCUUCAGGUAGCAAUUUUAUUAGCAAACUAUAAGCCUAAAGUAAUAGUUAAAAUUCUCACUGUGAUAUUCAUUACUAACCCCUGAACCUGUACCCUUCAGCUUACCACUACAGUACUUCUGUAGUAGAGCGAGUAUGGGUUUUGGUAUCAGACAGGUCCAAAUUUGAAUUCUGGUUCUACCUUUCAUUUAUCAAAUGACUUUGGGCAAAGUACUUAACCUCUCUGAGCUUUAGUUCCCUUCUCUGUAAAAGAAUAAAAUAUUUCAGUCUUAUCGUGUAGAUGAUAUACAGAGGGCACAUAACAAAUGUUAGAUCUCUCAAAUGUUUUUCUGUAACCCAAAUAUGCUUACAACUGAUUAAAGAAUGUUCUCACU [1/2-sbsRNA1(S)-MS2bs]”: the binding result in data set [1] (setting [6]) is on record as “no binding”; in data set [2], “binds”; in data set [3], “binds”; in data set [4] (setting [6]), “no binding”.
In the case of “CCAAGAAGUAGGUUUUUUUUUUUUUUUAAAUAAAGGAGAGACAGUCUCACUCUGUUGCCCAGGCUGGAAUACAGUGGUGUGAUCAUAGCUCACUGCAGCCUCUUUUAACUCCUGGGCUCAAGCAAUCCUUCCAACCUCAGCAUUCUGAGUAGCUGGGAUCACAGGUGCUCCCCAUCACACCCUGCUAAUUUAAUUUUCUUUGUAGAGACAGGGUCUUGCUAUGUUGCCUAGGCUGGUCUUGAACUCCUGGGCUCAAGUGAUCCUCCCGCCUCAGCCUCCCAGUGUUAGGAUUACAGGAGUGAGCCACUGCCUCUGCCUUCAGGUAGCAAUUUUAUUAGCAAACUAUAAGCCUAAAGUAAUAGUUAAAAUUCUCACUGUGAUAUUCAUUACUAACCCCUGAACCUGUACCCUUCAGCUUACCACUACAGUACUUCUGUAGUAGAGCGAGUAUGGGUUUUGGUAUCAGACAGGUCCAAAUUUGAAUUCUGGUUCUACCUUUCAUUUAUCAAAUGACUUUGGGCAAAGUACUUAACCUCUCUGAGCUUUAGUUCCCUUCUCUGUAAAAGAAUAAAAUAUUUCAGUCUUAUCGUGUAGAUGAUAUACAGAGGGCACAUAACAAAUGUUAGAUCUCUCAAAUGUUUUUCUGUAACCCAAAUAUGCUUACAACUGAUUAAAGAAUGUUCUCACU [1/2-sbsRNA1(S) lncRNA (AF087999)]”, the binding result in data set [1] (did not co-IP with 1/2-sbsRNA1) is “no binding”; in data set [5] it was “binds”; in data set [4] (did not co-IP with 1/2-sbsRNA1), “no binding”.
